Laboratory results reported in US12195506B2, “Immunotherapy with A*01 restricted peptides and combination of peptides against cancers and related methods” (Immatics Biotechnologies GmbH, priority 2018, dated 2025).

What follows are substances tested on HLA molecules of primary tumors and normal tissue samples (assay: Identification and relative quantitation of HLA ligands by LC-MS (peptide presentation on tumor versus normal tissue)). Settings: cancer entities on which the peptide was found presented (HLA ligands, LC-MS); abbreviations as in title of Table 8.
Design: species or system human
For “115 (NEIDIHSIYFY; listed as Homo sapiens) [compound 115]”, the “Peptide Presentation on cancer entities” value was “OSCAR”. For “116 (RSDIGEFEW; listed as Homo sapiens) [compound 116]”, the “Peptide Presentation on cancer entities” value was “AML”. In the case of “117 (SPAKQFNIY; listed as Homo sapiens) [compound 117]”, the “Peptide Presentation on cancer entities” value is reported as “GBC”. “119 (TVFDENLSRY; listed as Homo sapiens) [compound 119]” was tested, and the “Peptide Presentation on cancer entities” value was “OSCAR”. In the case of “121 (SADEAHGLL; listed as Homo sapiens) [compound 121]”, the “Peptide Presentation on cancer entities” value is reported as “MEL”. “122 (ISEAPLTEV; listed as Homo sapiens) [compound 122]” was tested, and the “Peptide Presentation on cancer entities” value was “MEL”. “123 (LLKAKDILY; listed as Homo sapiens) [compound 123]” was tested, and the “Peptide Presentation on cancer entities” value was “HNSCC”. “124 (FLKVTGYDKDDY; listed as Homo sapiens) [compound 124]” was tested, and the “Peptide Presentation on cancer entities” value was “HCC”. With “126 (TTDPKKFQY; listed as Homo sapiens) [compound 126]” the “Peptide Presentation on cancer entities” value was “MEL, NSCLCsquam, OC”. “127 (VPFNLITEY; listed as Homo sapiens) [compound 127]” was tested, and the “Peptide Presentation on cancer entities” value was “MEL”. In the case of “128 (YTEFVDATFTK; listed as Homo sapiens) [compound 128]”, the “Peptide Presentation on cancer entities” value is reported as “HNSCC”. For “130 (YIGLKGLYF; listed as Homo sapiens) [compound 130]”, the “Peptide Presentation on cancer entities” value was “MEL”. For “131 (LEDGIEQSAY; listed as Homo sapiens) [compound 131]”, the “Peptide Presentation on cancer entities” value was “NHL”. “132 (RTHIGYKVY; listed as Homo sapiens) [compound 132]” was tested, and the “Peptide Presentation on cancer entities” value was “NSCLCsquam”. For “134 (SAPSSSGSPLY; listed as Homo sapiens) [compound 134]”, the “Peptide Presentation on cancer entities” value was “NSCLCsquam”. For “136 (RRLNFSGFGY; listed as Homo sapiens) [compound 136]”, the “Peptide Presentation on cancer entities” value was “SCLC”. With “144 (RTIEGDFLW; listed as Homo sapiens) [compound 144]” the “Peptide Presentation on cancer entities” value was “GBM”. “145 (LSDAVHVEF; listed as Homo sapiens) [compound 145]” was tested, and the “Peptide Presentation on cancer entities” value was “CLL”. “147 (AQVQDTGRY; listed as Homo sapiens) [compound 147]” was tested, and the “Peptide Presentation on cancer entities” value was “MEL”. In the case of “148 (GTKQWVHARY; listed as Homo sapiens) [compound 148]”, the “Peptide Presentation on cancer entities” value is reported as “CLL”. In the case of “149 (PIMSSSQALY; listed as Homo sapiens) [compound 149]”, the “Peptide Presentation on cancer entities” value is reported as “NSCLCsquam”. “150 (FTTLSDLQTNMA; listed as Homo sapiens) [compound 150]” was tested, and the “Peptide Presentation on cancer entities” value was “HNSCC, MEL, NHL”. For “151 (YEVDTKLLSL; listed as Homo sapiens) [compound 151]”, the “Peptide Presentation on cancer entities” value was “MEL”. In the case of “155 (HTMEVTVY; listed as Homo sapiens) [compound 155]”, the “Peptide Presentation on cancer entities” value is reported as “MEL”. In the case of “156 (STALSILLL; listed as Homo sapiens) [compound 156]”, the “Peptide Presentation on cancer entities” value is reported as “MEL”. “158 (EVTDRNMLAF; listed as Homo sapiens) [compound 158]” was tested, and the “Peptide Presentation on cancer entities” value was “HNSCC, OC, OSCAR”. For “159 (RQAPGPARDY; listed as Homo sapiens) [compound 159]”, the “Peptide Presentation on cancer entities” value was “NSCLCsquam”. In the case of “160 (EVLGEEMYAY; listed as Homo sapiens) [compound 160]”, the “Peptide Presentation on cancer entities” value is reported as “PRCA”. In the case of “161 (EAAPDIMHY; listed as Homo sapiens) [compound 161]”, the “Peptide Presentation on cancer entities” value is reported as “MEL, OSCAR”. “162 (IADNPQLSFY; listed as Homo sapiens) [compound 162]” was tested, and the “Peptide Presentation on cancer entities” value was “BRCA”. With “163 (KIRAEVLSHY; listed as Homo sapiens) [compound 163]” the “Peptide Presentation on cancer entities” value was “CLL”. In the case of “165 (VSVYNSYPY; listed as Homo sapiens) [compound 165]”, the “Peptide Presentation on cancer entities” value is reported as “BRCA”. In the case of “169 (TVDNANILL; listed as Homo sapiens) [compound 169]”, the “Peptide Presentation on cancer entities” value is reported as “UBC”. With “172 (FSEPFHLIV; listed as Homo sapiens) [compound 172]” the “Peptide Presentation on cancer entities” value was “MEL”. In the case of “173 (QSTTGVSHY; listed as Homo sapiens) [compound 173]”, the “Peptide Presentation on cancer entities” value is reported as “CCC”. “174 (TSEVEGLAFVSY; listed as Homo sapiens) [compound 174]” was tested, and the “Peptide Presentation on cancer entities” value was “NSCLCsquam”. In the case of “175 (GLEYEAPKLY; listed as Homo sapiens) [compound 175]”, the “Peptide Presentation on cancer entities” value is reported as “GBM”. With “176 (HTDLESPSAVY; listed as Homo sapiens) [compound 176]” the “Peptide Presentation on cancer entities” value was “HCC, UBC”. For “180 (AQISDTGRY; listed as Homo sapiens) [compound 180]”, the “Peptide Presentation on cancer entities” value was “MEL”. With “183 (LADTDLGMTF; listed as Homo sapiens) [compound 183]” the “Peptide Presentation on cancer entities” value was “OSCAR”. In the case of “185 (NSDESADSEPHKY; listed as Homo sapiens) [compound 185]”, the “Peptide Presentation on cancer entities” value is reported as “BRCA”. For “189 (FRGVFVHRY; listed as Homo sapiens) [compound 189]”, the “Peptide Presentation on cancer entities” value was “MEL”. “190 (VSSTVHNLY; listed as Homo sapiens) [compound 190]” was tested, and the “Peptide Presentation on cancer entities” value was “BRCA”. “191 (FTRAFDQLRM; listed as Homo sapiens) [compound 191]” was tested, and the “Peptide Presentation on cancer entities” value was “NSCLCadeno”. “196 (RLAQYTIERY; listed as Homo sapiens) [compound 196]” was tested, and the “Peptide Presentation on cancer entities” value was “HCC”. In the case of “203 (LSQDELSKF; listed as Homo sapiens) [compound 203]”, the “Peptide Presentation on cancer entities” value is reported as “NSCLCsquam”. In the case of “207 (LLEGEDAHLTQY; listed as Homo sapiens) [compound 207]”, the “Peptide Presentation on cancer entities” value is reported as “HNSCC”. With “209 (EADPFLKYL; listed as Homo sapiens) [compound 209]” the “Peptide Presentation on cancer entities” value was “AML”. In the case of “210 (LLEADPFLKY; listed as Homo sapiens) [compound 210]”, the “Peptide Presentation on cancer entities” value is reported as “AML”. For “211 (YLNEWGSRF; listed as Homo sapiens) [compound 211]”, the “Peptide Presentation on cancer entities” value was “NSCLCadeno”. “212 (MMTDLTSVY; listed as Homo sapiens) [compound 212]” was tested, and the “Peptide Presentation on cancer entities” value was “MEL”. For “213 (VSDSTTEITY; listed as Homo sapiens) [compound 213]”, the “Peptide Presentation on cancer entities” value was “PACA”. In the case of “214 (VQDPSLPVY; listed as Homo sapiens) [compound 214]”, the “Peptide Presentation on cancer entities” value is reported as “NSCLCsquam”. “215 (DTLEAATSLY; listed as Homo sapiens) [compound 215]” was tested, and the “Peptide Presentation on cancer entities” value was “HCC”. “217 (LMDEGAVLTL; listed as Homo sapiens) [compound 217]” was tested, and the “Peptide Presentation on cancer entities” value was “HNSCC”. In the case of “219 (KTELETALYY; listed as Homo sapiens) [compound 219]”, the “Peptide Presentation on cancer entities” value is reported as “HCC”. In the case of “220 (DVERIKDTY; listed as Homo sapiens) [compound 220]”, the “Peptide Presentation on cancer entities” value is reported as “NSCLCsquam”. With “221 (TDVERIKDTY; listed as Homo sapiens) [compound 221]” the “Peptide Presentation on cancer entities” value was “HCC, NSCLCsquam”. “222 (GSPDAVVSY; listed as Homo sapiens) [compound 222]” was tested, and the “Peptide Presentation on cancer entities” value was “NSCLCsquam”. For “223 (NAVDVVPSSF; listed as Homo sapiens) [compound 223]”, the “Peptide Presentation on cancer entities” value was “GBC”. In the case of “224 (RTDEGDNRVW; listed as Homo sapiens) [compound 224]”, the “Peptide Presentation on cancer entities” value is reported as “OSCAR”. “226 (QITPKHNGLY; listed as Homo sapiens) [compound 226]” was tested, and the “Peptide Presentation on cancer entities” value was “NSCLCsquam, OC”. “230 (CVIETFHKY; listed as Homo sapiens) [compound 230]” was tested, and the “Peptide Presentation on cancer entities” value was “GBC”. With “233 (RINSATGQY; listed as Homo sapiens) [compound 233]” the “Peptide Presentation on cancer entities” value was “CLL”. “234 (YTDLTTIQV; listed as Homo sapiens) [compound 234]” was tested, and the “Peptide Presentation on cancer entities” value was “HNSCC”. “235 (SIEIDHTQY; listed as Homo sapiens) [compound 235]” was tested, and the “Peptide Presentation on cancer entities” value was “CCC, MEL, NSCLCadeno”. In the case of “237 (AQEAAVFLTLY; listed as Homo sapiens) [compound 237]”, the “Peptide Presentation on cancer entities” value is reported as “SCLC”. With “238 (ETDWGLLKGHTY; listed as Homo sapiens) [compound 238]” the “Peptide Presentation on cancer entities” value was “BRCA”. With “239 (SSERGSPIEKY; listed as Homo sapiens) [compound 239]” the “Peptide Presentation on cancer entities” value was “OSCAR”. With “240 (EVLDSLLAQY; listed as Homo sapiens) [compound 240]” the “Peptide Presentation on cancer entities” value was “OSCAR”. For “242 (GTNLPTLLW; listed as Homo sapiens) [compound 242]”, the “Peptide Presentation on cancer entities” value was “HCC, OSCAR”. “243 (LTSEDTGAY; listed as Homo sapiens) [compound 243]” was tested, and the “Peptide Presentation on cancer entities” value was “NSCLCadeno”. For “244 (VTKYIAGPY; listed as Homo sapiens) [compound 244]”, the “Peptide Presentation on cancer entities” value was “BRCA”. In the case of “245 (LSDNAANRY; listed as Homo sapiens) [compound 245]”, the “Peptide Presentation on cancer entities” value is reported as “AML”. “246 (ARLEGEIATY; listed as Homo sapiens) [compound 246]” was tested, and the “Peptide Presentation on cancer entities” value was “NSCLCsquam”. With “247 (SMIRVGTNY; listed as Homo sapiens) [compound 247]” the “Peptide Presentation on cancer entities” value was “NSCLCsquam, OC”. With “250 (GYVCNACGLY; listed as Homo sapiens) [compound 250]” the “Peptide Presentation on cancer entities” value was “HNSCC”. With “251 (GIEMTYETY; listed as Homo sapiens) [compound 251]” the “Peptide Presentation on cancer entities” value was “GBC”. For “253 (YLESHGLAY; listed as Homo sapiens) [compound 253]”, the “Peptide Presentation on cancer entities” value was “NSCLCsquam”. In the case of “254 (FLFNDALLY; listed as Homo sapiens) [compound 254]”, the “Peptide Presentation on cancer entities” value is reported as “BRCA”. In the case of “255 (WELDSLEY; listed as Homo sapiens) [compound 255]”, the “Peptide Presentation on cancer entities” value is reported as “GBM”.
